In patent EP1304122A2:
No constants are given. Whether binding was seen depends on the method and setting. Binding seen in cells or lysates may run through a third protein. Some binding calls cover weakened binding; strength is not graded here.

How the values were obtained:
[1] = target: T1, V7 (leukocyte surface protein, also known as CD101) (UniProt Q93033); assay: co-immunoprecipitation from T cell lysate with anti-V7 murine antibody
T1 sequence (looked up): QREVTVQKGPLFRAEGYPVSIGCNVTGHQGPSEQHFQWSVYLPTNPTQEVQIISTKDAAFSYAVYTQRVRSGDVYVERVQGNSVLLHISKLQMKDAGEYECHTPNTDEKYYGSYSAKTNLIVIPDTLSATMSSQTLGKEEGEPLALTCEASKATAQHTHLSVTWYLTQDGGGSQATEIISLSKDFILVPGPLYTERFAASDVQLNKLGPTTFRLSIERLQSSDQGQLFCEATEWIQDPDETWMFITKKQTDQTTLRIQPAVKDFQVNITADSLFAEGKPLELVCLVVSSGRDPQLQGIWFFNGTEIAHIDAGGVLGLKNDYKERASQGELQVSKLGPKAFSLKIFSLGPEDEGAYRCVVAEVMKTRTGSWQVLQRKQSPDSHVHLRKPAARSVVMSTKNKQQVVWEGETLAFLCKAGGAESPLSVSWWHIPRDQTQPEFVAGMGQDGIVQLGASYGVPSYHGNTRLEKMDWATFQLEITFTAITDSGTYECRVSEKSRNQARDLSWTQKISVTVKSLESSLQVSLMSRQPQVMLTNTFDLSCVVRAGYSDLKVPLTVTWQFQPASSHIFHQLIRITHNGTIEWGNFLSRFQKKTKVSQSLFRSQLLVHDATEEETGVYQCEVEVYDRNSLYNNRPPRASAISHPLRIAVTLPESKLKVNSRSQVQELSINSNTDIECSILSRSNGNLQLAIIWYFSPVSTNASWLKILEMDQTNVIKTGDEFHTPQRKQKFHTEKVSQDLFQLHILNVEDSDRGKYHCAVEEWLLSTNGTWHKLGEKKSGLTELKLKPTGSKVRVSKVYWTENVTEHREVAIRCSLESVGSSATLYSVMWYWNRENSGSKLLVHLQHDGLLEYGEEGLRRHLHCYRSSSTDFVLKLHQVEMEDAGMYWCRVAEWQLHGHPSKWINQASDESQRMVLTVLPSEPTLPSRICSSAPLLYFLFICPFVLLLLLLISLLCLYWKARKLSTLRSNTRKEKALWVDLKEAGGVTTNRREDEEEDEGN

[2] = target: T1, V7 (leukocyte surface protein, also known as CD101); assay: co-immunoprecipitation from T cell lysate with anti-V7 murine monoclonal antibody and goat anti-mouse IgG

“RAF-1 kinase (from UniProt P04049 1-648) (enzyme)” was tested, and the binding [1] was “binds” and the binding [2] was “binds”.
